Assay results from publication PMC10873344.
These are yes or no findings as the source states them, for the method shown. Binding seen in cells or lysates may run through a third protein. Some entries that bind do so weakly or less than the wild type.

By UniProt entry, the sequences of proteins in these tests, tags left out. Where a name states a change or a piece, a line headed by the entry shows the natural chain unless it says otherwise. Chains listed by the source or under a name are the forms on record and can include a tag or linker. Residues count along the entry.
UniProt Q9Z2G6, residues 22-790: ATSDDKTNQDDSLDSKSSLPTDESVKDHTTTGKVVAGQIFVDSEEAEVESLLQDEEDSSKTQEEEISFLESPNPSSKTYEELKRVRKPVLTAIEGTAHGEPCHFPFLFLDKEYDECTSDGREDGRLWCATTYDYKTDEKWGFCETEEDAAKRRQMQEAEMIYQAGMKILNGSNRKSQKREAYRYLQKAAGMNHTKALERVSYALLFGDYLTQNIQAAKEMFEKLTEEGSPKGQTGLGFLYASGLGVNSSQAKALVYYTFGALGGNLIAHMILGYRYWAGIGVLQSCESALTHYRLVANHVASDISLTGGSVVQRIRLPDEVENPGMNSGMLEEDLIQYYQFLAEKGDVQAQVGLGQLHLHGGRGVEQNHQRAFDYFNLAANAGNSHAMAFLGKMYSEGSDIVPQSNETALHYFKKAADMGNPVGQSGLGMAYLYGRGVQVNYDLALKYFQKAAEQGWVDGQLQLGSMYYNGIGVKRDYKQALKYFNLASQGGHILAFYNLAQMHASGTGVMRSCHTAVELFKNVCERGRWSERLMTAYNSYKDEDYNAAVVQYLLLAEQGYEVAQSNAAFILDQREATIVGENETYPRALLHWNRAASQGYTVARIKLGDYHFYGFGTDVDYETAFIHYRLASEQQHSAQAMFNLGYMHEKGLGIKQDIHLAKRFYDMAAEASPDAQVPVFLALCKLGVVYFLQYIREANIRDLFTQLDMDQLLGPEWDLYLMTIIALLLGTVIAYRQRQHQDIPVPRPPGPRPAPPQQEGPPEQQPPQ
HRD1 (HMG-CoA reductase degradation 1), endogenous human (human (endogenous in HEK293T)) (Q86TM6, form named): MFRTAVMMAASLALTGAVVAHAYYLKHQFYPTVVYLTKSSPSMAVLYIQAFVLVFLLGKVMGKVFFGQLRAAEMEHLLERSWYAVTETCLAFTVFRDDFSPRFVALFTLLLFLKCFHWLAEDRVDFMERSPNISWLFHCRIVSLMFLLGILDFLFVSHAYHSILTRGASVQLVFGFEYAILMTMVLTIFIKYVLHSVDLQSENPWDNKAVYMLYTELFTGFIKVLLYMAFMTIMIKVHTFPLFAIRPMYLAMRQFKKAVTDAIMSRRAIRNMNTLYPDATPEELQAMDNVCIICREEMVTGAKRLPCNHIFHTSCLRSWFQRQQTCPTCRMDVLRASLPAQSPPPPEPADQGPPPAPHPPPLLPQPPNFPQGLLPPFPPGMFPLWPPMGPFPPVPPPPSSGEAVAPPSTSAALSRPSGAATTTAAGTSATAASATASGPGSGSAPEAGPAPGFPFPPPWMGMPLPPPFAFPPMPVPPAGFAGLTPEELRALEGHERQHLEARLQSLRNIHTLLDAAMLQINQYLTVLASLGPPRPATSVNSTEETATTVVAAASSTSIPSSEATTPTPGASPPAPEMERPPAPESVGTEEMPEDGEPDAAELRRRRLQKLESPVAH
human HRD1 Y30A-FLAG (Q86TM6, form named): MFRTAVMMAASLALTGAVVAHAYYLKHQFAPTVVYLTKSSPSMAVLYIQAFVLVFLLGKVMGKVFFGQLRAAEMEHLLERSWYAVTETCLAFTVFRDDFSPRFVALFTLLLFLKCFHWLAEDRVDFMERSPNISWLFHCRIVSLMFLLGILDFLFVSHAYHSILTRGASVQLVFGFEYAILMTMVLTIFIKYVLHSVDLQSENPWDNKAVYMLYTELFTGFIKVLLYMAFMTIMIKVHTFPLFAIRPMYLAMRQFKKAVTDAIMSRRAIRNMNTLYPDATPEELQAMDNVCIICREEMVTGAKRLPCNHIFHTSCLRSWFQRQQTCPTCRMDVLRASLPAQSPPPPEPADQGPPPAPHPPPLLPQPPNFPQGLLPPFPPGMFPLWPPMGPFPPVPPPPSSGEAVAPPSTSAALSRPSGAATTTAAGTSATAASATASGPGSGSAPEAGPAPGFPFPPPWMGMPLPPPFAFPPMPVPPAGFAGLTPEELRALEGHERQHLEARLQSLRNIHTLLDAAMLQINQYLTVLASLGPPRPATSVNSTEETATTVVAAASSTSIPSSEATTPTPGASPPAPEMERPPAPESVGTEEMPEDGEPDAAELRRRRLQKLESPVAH
human HRD1 Y30D-FLAG (Q86TM6, form named): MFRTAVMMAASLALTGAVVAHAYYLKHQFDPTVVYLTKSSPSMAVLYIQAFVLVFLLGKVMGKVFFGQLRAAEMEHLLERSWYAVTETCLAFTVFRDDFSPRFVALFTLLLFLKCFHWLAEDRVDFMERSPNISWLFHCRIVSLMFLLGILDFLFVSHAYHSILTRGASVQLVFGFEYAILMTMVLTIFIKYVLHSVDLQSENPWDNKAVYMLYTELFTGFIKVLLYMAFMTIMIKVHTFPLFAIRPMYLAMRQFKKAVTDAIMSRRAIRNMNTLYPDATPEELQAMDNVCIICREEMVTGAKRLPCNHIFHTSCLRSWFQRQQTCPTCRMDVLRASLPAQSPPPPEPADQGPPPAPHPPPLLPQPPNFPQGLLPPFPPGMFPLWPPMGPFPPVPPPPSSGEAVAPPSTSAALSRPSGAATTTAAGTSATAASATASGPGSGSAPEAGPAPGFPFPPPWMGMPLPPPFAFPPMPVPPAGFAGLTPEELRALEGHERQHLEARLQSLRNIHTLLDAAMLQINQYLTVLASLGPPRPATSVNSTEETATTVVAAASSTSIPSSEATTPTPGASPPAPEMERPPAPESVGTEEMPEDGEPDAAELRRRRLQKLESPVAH
human HRD1 Y30F-FLAG (Q86TM6, form named): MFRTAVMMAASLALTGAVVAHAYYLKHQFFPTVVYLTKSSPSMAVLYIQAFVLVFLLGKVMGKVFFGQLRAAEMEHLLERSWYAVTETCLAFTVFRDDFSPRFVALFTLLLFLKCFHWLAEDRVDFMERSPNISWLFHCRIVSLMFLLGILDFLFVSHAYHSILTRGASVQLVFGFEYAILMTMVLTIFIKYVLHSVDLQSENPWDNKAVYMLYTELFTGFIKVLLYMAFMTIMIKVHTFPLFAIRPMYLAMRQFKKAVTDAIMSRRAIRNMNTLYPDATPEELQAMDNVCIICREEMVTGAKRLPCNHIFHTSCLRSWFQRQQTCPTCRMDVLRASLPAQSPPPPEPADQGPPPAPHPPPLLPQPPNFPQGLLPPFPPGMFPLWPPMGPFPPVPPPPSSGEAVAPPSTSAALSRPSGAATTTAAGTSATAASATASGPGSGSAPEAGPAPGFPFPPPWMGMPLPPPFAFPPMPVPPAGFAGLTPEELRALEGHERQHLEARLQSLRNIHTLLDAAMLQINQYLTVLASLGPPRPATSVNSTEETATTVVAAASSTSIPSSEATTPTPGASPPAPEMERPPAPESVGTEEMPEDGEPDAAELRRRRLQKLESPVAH
human HRD1 Y30K-FLAG (Q86TM6, form named): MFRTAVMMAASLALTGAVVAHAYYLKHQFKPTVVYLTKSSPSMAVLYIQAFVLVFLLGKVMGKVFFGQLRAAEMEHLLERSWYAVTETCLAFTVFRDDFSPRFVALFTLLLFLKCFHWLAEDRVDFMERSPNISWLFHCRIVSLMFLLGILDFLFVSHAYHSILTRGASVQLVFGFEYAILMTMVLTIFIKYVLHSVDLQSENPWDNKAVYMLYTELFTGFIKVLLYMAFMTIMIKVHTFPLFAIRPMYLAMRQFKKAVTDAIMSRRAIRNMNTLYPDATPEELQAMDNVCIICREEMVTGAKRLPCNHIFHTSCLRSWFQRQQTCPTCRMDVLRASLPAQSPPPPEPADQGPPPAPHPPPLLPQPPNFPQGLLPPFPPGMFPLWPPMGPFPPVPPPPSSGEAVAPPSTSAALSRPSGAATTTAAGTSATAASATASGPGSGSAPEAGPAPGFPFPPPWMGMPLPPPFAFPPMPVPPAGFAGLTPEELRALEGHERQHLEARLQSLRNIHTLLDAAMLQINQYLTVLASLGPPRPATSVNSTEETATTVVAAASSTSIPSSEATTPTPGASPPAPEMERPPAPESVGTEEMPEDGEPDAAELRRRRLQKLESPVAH
UniProt Q9UBV2, residues 22-794: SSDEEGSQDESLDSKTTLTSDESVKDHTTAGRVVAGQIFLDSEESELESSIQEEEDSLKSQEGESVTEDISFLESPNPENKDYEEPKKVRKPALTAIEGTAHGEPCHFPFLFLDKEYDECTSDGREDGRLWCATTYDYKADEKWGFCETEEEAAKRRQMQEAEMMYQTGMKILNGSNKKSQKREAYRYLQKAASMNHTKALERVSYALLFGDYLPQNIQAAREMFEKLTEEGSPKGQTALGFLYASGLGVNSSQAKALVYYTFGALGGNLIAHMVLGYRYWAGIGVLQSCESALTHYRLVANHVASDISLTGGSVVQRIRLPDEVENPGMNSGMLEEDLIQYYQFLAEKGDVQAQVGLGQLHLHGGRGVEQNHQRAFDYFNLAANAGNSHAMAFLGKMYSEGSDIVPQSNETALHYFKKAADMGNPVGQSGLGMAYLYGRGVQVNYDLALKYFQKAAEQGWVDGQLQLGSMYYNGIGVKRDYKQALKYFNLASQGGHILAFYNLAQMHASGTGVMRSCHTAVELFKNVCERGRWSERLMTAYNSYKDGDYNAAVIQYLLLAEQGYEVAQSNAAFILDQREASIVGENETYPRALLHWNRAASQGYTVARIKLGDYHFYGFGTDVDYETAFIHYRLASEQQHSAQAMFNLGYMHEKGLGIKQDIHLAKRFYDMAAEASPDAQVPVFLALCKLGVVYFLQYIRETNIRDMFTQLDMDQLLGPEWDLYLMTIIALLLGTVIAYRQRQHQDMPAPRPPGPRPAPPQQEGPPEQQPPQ
UniProt Q9DBY1: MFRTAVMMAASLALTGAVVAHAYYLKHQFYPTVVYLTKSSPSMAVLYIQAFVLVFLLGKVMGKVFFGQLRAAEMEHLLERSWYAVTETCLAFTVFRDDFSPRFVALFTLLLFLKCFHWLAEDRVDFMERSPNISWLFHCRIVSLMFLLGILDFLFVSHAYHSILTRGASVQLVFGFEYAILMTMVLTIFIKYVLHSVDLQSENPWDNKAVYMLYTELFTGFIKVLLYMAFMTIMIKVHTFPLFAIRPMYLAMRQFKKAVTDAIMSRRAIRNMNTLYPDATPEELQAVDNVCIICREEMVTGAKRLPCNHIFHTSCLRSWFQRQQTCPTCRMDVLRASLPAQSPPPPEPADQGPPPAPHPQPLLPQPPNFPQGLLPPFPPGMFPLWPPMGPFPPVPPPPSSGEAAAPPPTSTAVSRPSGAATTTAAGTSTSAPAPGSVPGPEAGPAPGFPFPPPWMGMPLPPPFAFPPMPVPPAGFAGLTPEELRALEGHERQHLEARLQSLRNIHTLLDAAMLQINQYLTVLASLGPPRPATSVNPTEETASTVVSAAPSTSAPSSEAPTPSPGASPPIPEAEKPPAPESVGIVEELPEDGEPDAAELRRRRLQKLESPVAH

Key:
[1] = target: SEL1L, endogenous mouse (WT liver) (mouse (endogenous in liver)) (UniProt Q9Z2G6); test: co-IP; IP of endogenous SEL1L or HRD1 (home-made antibody, protein A agarose) from livers of 5-week-old WT, HET and KI mice; 150 mM NaCl, 1% NP-40, 25 mM Tris-HCl pH 7.5
[2] = target: HRD1 (HMG-CoA reductase degradation 1), endogenous human (human (endogenous in HEK293T)) (UniProt Q86TM6); test: co-IP; IP of endogenous HRD1 or SEL1L in WT, HRD1-/- and SEL1L-/- HEK293T cells, Western blot
[3] = target: HRD1 (HMG-CoA reductase degradation 1), endogenous human (human (endogenous in HEK293T)) (UniProt Q86TM6); test: co-IP; IP of endogenous HRD1 in SEL1L-/- HEK293T cells transfected with SEL1L-FLAG WT or S658P, Western blot
[4] = target: human HRD1 (WT)-FLAG (human) (UniProt Q86TM6); test: co-IP; HRD1-FLAG WT and Y30 mutants (Supplementary Fig. 7c); cells and bait not shown
[5] = target: human HRD1 Y30A-FLAG (human) (UniProt Q86TM6); test: as above
[6] = target: human HRD1 Y30D-FLAG (human) (UniProt Q86TM6); test: as above
[7] = target: human HRD1 Y30F-FLAG (human) (UniProt Q86TM6); test: as above
[8] = target: human HRD1 Y30K-FLAG (human) (UniProt Q86TM6); test: as above
[9] = target: SEL1L (suppressor of lin-12-like), endogenous human (human (endogenous in HEK293T)) (UniProt Q9UBV2); test: co-IP; IP of endogenous HRD1 or SEL1L in WT, HRD1-/- and SEL1L-/- HEK293T cells, Western blot
[10] = target: mouse SEL1L (WT)-FLAG (mouse) (UniProt Q9Z2G6); test: co-IP; SEL1L-/- HEK293T cells overexpressing both SEL1L-FLAG and HRD1-Myc (Supplementary Fig. 6d); which tag was precipitated not shown
[11] = target: mouse SEL1L (WT)-FLAG (mouse) (UniProt Q9Z2G6); test: co-IP; anti-FLAG agarose IP from lysates of SEL1L-/- HEK293T cells transfected with SEL1L-FLAG variants, blots for endogenous partners; 150 mM NaCl, 0.2% NP-40, 0.1% Triton X-100, 25 mM Tris-HCl pH 7.5, overnight at 4 C

## HRD1, endogenous mouse (liver) (from UniProt Q9DBY1 1-612) (enzyme)
[1]
  binding: binds

B1: HERP1, endogenous human (protein, UniProt Q15011 1-391)
chain: MESETEPEPVTLLVKSPNQRHRDLELSGDRGWSVGHLKAHLSRVYPERPRPEDQRLIYSGKLLLDHQCLRDLLPKQEKRHVLHLVCNVKSPSKMPEINAKVAESTEEPAGSNRGQYPEDSSSDGLRQREVLRNLSSPGWENISRPEAAQQAFQGLGPGFSGYTPYGWLQLSWFQQIYARQYYMQYLAATAASGAFVPPPSAQEIPVVSAPAPAPIHNQFPAENQPANQNAAPQVVVNPGANQNLRMNAQGGPIVEEDDEINRDWLDWTYSAATFSVFLSILYFYSSLSRFLMVMGATVVMYLHHVGWFPFRPRPVQNFPNDGPPPDVVNQDPNNNLQEGTDPETEDPNHLPPDRDVLDGEQTSPSFMSTAWLVFKTFFASLLPEGPPAIAN
[2]
  binding: binds
[3]
  binding: binds

B2: FAM8A1, endogenous human (protein, UniProt Q9UBU6 1-413)
chain: MAEGPEEARGHPPGQDDGGGDHEPVPSLRGPPTTAVPCPRDDPQAEPQAPGRPTAPGLAAAAAADKLEPPRELRKRGEAASGSGAELQEQAGCEAPEAAAPRERPARLSAREYSRQVHEWLWQSYCGYLTWHSGLAAFPAYCSPQPSPQSFPSGGAAVPQAAAPPPPQLGYYNPFYFLSPGAAGPDPRTAAGISTPAPVAGLGPRAPHVQASVRATPVTRVGSAAPSRSPSETGRQAGREYVIPSLAHRFMAEMVDFFILFFIKATIVLSIMHLSGIKDISKFAMHYIIEEIDEDTSMEDLQKMMVVALIYRLLVCFYEIICIWGAGGATPGKFLLGLRVVTCDTSVLIAPSRVLVIPSSNVSITTSTIRALIKNFSIASFFPAFITLLFFQHNRTAYDIVAGTIVVKRNGVR
[4]
  binding: binds
[5]
  binding: binds
[6]
  binding: binds
[7]
  binding: binds
[8]
  binding: binds
[2]
  binding: binds
[3]
  binding: binds

B3: OS9 (Osteosarcoma amplified 9), endogenous human (protein, UniProt Q13438 26-667)
chain: GGVGSLNLEELSEMRYGIEILPLPVMGGQSQSSDVVIVSSKYKQRYECRLPAGAIHFQREREEETPAYQGPGIPELLSPMRDAPCLLKTKDWWTYEFCYGRHIQQYHMEDSEIKGEVLYLGYYQSAFDWDDETAKASKQHRLKRYHSQTYGNGSKCDLNGRPREAEVRFLCDEGAGISGDYIDRVDEPLSCSYVLTIRTPRLCPHPLLRPPPSAAPQAILCHPSLQPEEYMAYVQRQADSKQYGDKIIEELQDLGPQVWSETKSGVAPQKMAGASPTKDDSKDSDFWKMLNEPEDQAPGGEEVPAEEQDPSPEAADSASGAPNDFQNNVQVKVIRSPADLIRFIEELKGGTKKGKPNIGQEQPVDDAAEVPQREPEKERGDPERQREMEEEEDEDEDEDEDEDERQLLGEFEKELEGILLPSDRDRLRSEVKAGMERELENIIQETEKELDPDGLKKESERDRAMLALTSTLNKLIKRLEEKQSPELVKKHKKKRVVPKKPPPSPQPTEEDPEHRVRVRVTKLRLGGPNQDLTVLEMKRENPQLKQIEGLVKELLEREGLTAAGKIEIKIVRPWAEGTEEGARWLTDEDTRNLKEIFFNILVPGAEEAQKERQRQKELESNYRRVWGSPGGEGTGDLDEFDF
[9]
  binding: binds
[10]
  binding: binds
[11]
  binding: binds

B4: UBE2J1, endogenous human (enzyme, UniProt Q9Y385 1-318)
chain: METRYNLKSPAVKRLMKEAAELKDPTDHYHAQPLEDNLFEWHFTVRGPPDSDFDGGVYHGRIVLPPEYPMKPPSIILLTANGRFEVGKKICLSISGHHPETWQPSWSIRTALLAIIGFMPTKGEGAIGSLDYTPEERRALAKKSQDFCCEGCGSAMKDVLLPLKSGSDSSQADQEAKELARQISFKAEVNSSGKTISESDLNHSFSLTDLQDDIPTTFQGATASTSYGLQNSSAASFHQPTQPVAKNTSMSPRQRRAQQQSQRRLSTSPDVIQGHQPRDNHTDHGGSAVLIVILTLALAALIFRRIYLANEYIFDFEL
[9]
  binding: binds
[11]
  binding: binds

B5: DERL2, endogenous human (protein, UniProt Q9GZP9 1-239)
chain: MAYQSLRLEYLQIPPVSRAYTTACVLTTAAVQLELITPFQLYFNPELIFKHFQIWRLITNFLFFGPVGFNFLFNMIFLYRYCRMLEEGSFRGRTADFVFMFLFGGFLMTLFGLFVSLVFLGQAFTIMLVYVWSRRNPYVRMNFFGLLNFQAPFLPWVLMGFSLLLGNSIIVDLLGIAVGHIYFFLEDVFPNQPGGIRILKTPSILKAIFDTPDEDPNYNPLPEERPGGFAWGEGQRLGG
[9]
  binding: binds
[11]
  binding: binds

B6: ERLEC1 (ER lectin 1), endogenous human (protein, UniProt Q96DZ1 34-483)
chain: LPQLSDDIPFRVNWPGTEFSLPTTGVLYKEDNYVIMTTAHKEKYKCILPLVTSGDEEEEKDYKGPNPRELLEPLFKQSSCSYRIESYWTYEVCHGKHIRQYHEEKETGQKINIHEYYLGNMLAKNLLFEKEREAEEKEKSNEIPTKNIEGQMTPYYPVGMGNGTPCSLKQNRPRSSTVMYICHPESKHEILSVAEVTTCEYEVVILTPLLCSHPKYRFRASPVNDIFCQSLPGSPFKPLTLRQLEQQEEILRVPFRRNKEEDLQSTKEERFPAIHKSIAIGSQPVLTVGTTHISKLTDDQLIKEFLSGSYCFRGGVGWWKYEFCYGKHVHQYHEDKDSGKTSVVVGTWNQEEHIEWAKKNTARAYHLQDDGTQTVRMVSHFYGNGDICDITDKPRQVTVKLKCKESDSPHAVTVYMLEPHSCQYILGVESPVICKILDTADENGLLSLPN
[10]
  binding: binds
[11]
  binding: binds

B7: ERLEC1, endogenous mouse (liver) (protein, UniProt Q8VEH8 34-483)
chain: LPQLSDDIPFRVNWPGTEFSLPTTGVLYKEDNYIIMTTAHKEKYKCILPLVTSGDEEEEKDYKGPNPRELLEPLFKQSSCSYRIESYWTYEVCHGKHIRQYHEEKETGQKVNIHEYYLGNMLAKNLLYEKEREAKENEKSNEIPTKNIEGQMTPYYPVGMGNGTPCSLKQNRPRSSTVMYICHPESKHEILSVAEVTTCEYEVVILTPLLCSHPKYKFRASPVNDIFCQSLPGSPFKPLTLRQLEQQEEILRVPFRRNKEEDLPSAKEERFPAIHKPIAVGSQPVLTVGTTHISKLTDDQLIKEFLSGSYCFHGGVGWWKYEFCYGKHVHQYHEDKDNGKTSVVVGTWNQEEHVEWAKKNTARAYHLQDDGTQTVRMVSHFYGNGDICDITDKPRQVTVKLKCKESDSPHAVTVYMLEPHSCQYILGVESPVICKILDTADENGLLSLPN
[1]
  binding: binds
